According to patent publication US20230128075A1:
No constants are given. Whether binding was seen depends on the method and setting.

Biological target: Human ⇒ mouse HSP70 mutant/GFP (human)
Test: Western blot of 293 cell material with 77A

B1: 77A antibody (clone 77A, murine anti-HSP70 mAb) (antibody, V domains shown)
VH: QIQLVQSGPELKKPGETVKISCKASGYTFTNYGMNWVKQAPGKGLKWMGWINTYTGEPTYADDFKGRFAFSLETSATTAYLQINNLKNEDTATYFCARYDHAMDYWGQGTSVTVSS
VL: DIVMSQSPSSLAVSAGEKVTMSCKSSQSLLNSGTRKNYLAWYQQKPGQSPKLLIYWTSTRESGVPDRFTGSGSGTDFTLTINSVQAEDLAVYYCKQSYTLYTFGGGTKLEIK
- binding: no binding
